Assay results: patent US20170096670
For some assays here: A negative result means that nothing was seen under these conditions. Tags and fusion partners may be left off the protein sequences shown. For some assays here: The exact form of at least one protein or probe is not confirmed.

Key:
[1] = molecular target: T1, CD200R1 (on C57BL/6 splenocytes in allo-MLC) (Mus musculus) (UniProt Q9ES57); experiment: activity in cells; details: protein on the cell surface, single-stranded DNA
T1 sequence (looked up, limits assumed): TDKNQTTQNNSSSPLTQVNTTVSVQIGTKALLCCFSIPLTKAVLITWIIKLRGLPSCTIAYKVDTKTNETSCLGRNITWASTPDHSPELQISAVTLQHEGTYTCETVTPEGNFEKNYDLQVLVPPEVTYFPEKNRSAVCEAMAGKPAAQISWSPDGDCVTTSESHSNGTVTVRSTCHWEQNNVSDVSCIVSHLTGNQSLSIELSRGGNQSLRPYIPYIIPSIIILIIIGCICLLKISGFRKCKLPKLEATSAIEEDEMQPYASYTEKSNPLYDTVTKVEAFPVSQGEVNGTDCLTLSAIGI

[2] = molecular target: T2, CD200R1 (full length, stably expressed in HEK-293) (Mus musculus) (UniProt Q9ES57); experiment: activity in cells; details: protein on the cell surface, single-stranded DNA
T2 sequence (looked up, limits assumed): T1 sequence (looked up, limits assumed)

[3] = molecular target: T3, CD200R1 (recombinant) (Homo sapiens) (UniProt Q8TD46); experiment: SELEX; details: enriched in both murine and human CD200R1 pools at cycle 15; purified recombinant protein; single-stranded DNA
T3 sequence (looked up, limits assumed): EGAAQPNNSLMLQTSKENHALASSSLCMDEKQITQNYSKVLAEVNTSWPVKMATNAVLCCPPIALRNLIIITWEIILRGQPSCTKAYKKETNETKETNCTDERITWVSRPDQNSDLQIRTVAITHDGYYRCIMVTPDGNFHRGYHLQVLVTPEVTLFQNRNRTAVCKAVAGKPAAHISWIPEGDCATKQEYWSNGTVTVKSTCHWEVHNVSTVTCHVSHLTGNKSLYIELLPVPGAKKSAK

[4] = molecular target: T4, CD200R1 (extracellular domain, recombinant) (Mus musculus) (UniProt Q9ES57); experiment: SELEX; details: purified recombinant protein, protein details: HIS-tag, immobilized on MagneHis Ni-Particles, single-stranded DNA
T4 sequence (looked up, limits assumed): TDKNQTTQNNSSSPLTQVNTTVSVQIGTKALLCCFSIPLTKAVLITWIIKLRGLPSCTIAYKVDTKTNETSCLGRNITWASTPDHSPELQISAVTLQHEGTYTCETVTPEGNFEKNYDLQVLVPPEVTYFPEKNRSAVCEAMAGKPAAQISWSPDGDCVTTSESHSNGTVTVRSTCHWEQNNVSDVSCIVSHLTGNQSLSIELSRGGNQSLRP

[5] = molecular target: T5, CD200R1 (on human cells in allo-MLC) (Homo sapiens) (UniProt Q8TD46); experiment: activity in cells; details: human allo-MLC, protein on the cell surface, single-stranded DNA
T5 sequence (looked up, limits assumed): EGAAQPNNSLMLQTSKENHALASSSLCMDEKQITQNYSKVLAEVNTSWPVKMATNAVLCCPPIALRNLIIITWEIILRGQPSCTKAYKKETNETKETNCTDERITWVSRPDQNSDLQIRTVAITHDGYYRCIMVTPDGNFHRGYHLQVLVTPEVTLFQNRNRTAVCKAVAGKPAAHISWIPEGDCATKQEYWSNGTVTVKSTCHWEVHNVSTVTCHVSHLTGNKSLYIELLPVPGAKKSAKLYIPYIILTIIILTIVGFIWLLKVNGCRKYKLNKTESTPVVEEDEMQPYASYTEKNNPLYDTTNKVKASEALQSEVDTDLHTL

[6] = enriched in both murine and human CD200R1 pools at cycle 15
[7] = enriched after 15 rounds, PBS pH 7.4, 37 C

Sequence: CGGCACAGACGTTTATTACCATTATGCCTATGTAACGTATGCCG [TrM52 (M52-T1)]
- functional effect of the aptamer ([1]; suppresses CTL induction equivalent to full length, variant of M52, dose not given here): active

Sequence: GACGATAGCGGTGACGGCACAGACGCACCGCTCTTATGCCACCATTTTCACGTATGCCGCTTCCGTCCGTCGCTC [CCS13]
- functional effect of the aptamer ([2]; full length induces CD200R1 phosphorylation, 3 uM): active
- selection result [3]: selected
- selection result [4, 6]: selected

Sequence: GACGATAGCGGTGACGGCACAGACGCACCGCTCTTATGCCACCATTTTCACGTATGCCGCTTCCGTCCGTCGCTC [PEG-CCS13]
- functional effect of the aptamer ([5]; 5' amine C6 spacer 20 kDa PEG, 3 ug/mL, significant suppression of CTL induction, variant of CCS13): active
- functional effect of the aptamer ([1]; 5' amine C6 spacer 20 kDa PEG, mouse allo-MLC, 3 ug/mL, significant suppression of CTL induction, variant of CCS13): active

Sequence: GACGATAGCGGTGACGGCACAGACGCCCCTCCGAGTGATATGTAATCCTACGTATGCCGCTTCCGTCCGTCGCTC [CCS8]
- selection result [3]: selected
- selection result [4, 6]: selected

Sequence: GACGATAGCGGTGACGGCACAGACGCCCCTCCGAGTGATATGTAATCCTACGTATGCCGCTTCCGTCCGTCGCTC [PEG-CCS8]
- functional effect of the aptamer ([5]; 5' 20 kDa PEG, activity retained after PEGylation, variant of CCS8, dose not given here): active
- functional effect of the aptamer ([1]; 5' 20 kDa PEG, mouse allo-MLC, activity retained after PEGylation, variant of CCS8, dose not given here): active

Sequence: GACGATAGCGGTGACGGCACAGACGGACGTGACATGCTTGACCAACTCGCCGTATGCCGCTTCCGTCCGTCGCTC [M49]
- functional effect of the aptamer ([2]; positive control for CD200R1 phosphorylation, 1.5 uM): active
- selection result [4, 7]: selected

Sequence: GACGATAGCGGTGACGGCACAGACGGACGTGACATGCTTGACCAACTCGCCGTATGCCGCTTCCGTCCGTCGCTC [PEG-M49]
- functional effect of the aptamer ([2]; 5' amine C6 spacer 20 kDa PEG, induces phosphorylation of CD200R1 cytoplasmic tail, 2.5 uM, 30 min, variant of M49): active

Sequence: GACGATAGCGGTGACGGCACAGACGTCCCGCATCCTCCGCCGTGCCGACCCGTATGCCGCTTCCGTCCGTCGCTC [PEG-cApt]
- functional effect of the aptamer ([5]; 5' amine C6 spacer 20 kDa PEG, no significant suppression, variant of cApt, dose not given here): not active
- functional effect of the aptamer ([1]; 5' amine C6 spacer 20 kDa PEG, mouse allo-MLC, no significant suppression, variant of cApt, dose not given here): not active
- functional effect of the aptamer ([2]; 5' amine C6 spacer 20 kDa PEG, no detectable CD200R1 phosphorylation, 2.5 uM, variant of cApt): not active

Sequence: GACGATAGCGGTGACGGCACAGACGTCCCGCATCCTCCGCCGTGCCGACCCGTATGCCGCTTCCGTCCGTCGCTC [cApt]
- functional effect of the aptamer ([1]; scrambled control in CTL induction assay, dose not given here): not active
- functional effect of the aptamer ([2]; negative control in phosphorylation assay, 3 uM): not active

Sequence: GACGATAGCGGTGACGGCACAGACGTTTATTACCATTATGCCTATGTAACGTATGCCGCTTCCGTCCGTCGCTC [M52]
- selection result [4, 7]: selected

Sequence: GACGATAGCGGTGACGGCACAGACGTTTATTACCATTATGCCTATGTAACGTATGCCGCTTCCGTCCGTCGCTC [PEG-M52]
- functional effect of the aptamer ([2]; 5' amine C6 spacer 20 kDa PEG, induces phosphorylation of CD200R1 cytoplasmic tail, 2.5 uM, 30 min, variant of M52): active
